Values quoted from earlier work, collected in patent US8507466B2, “Oils enriched with diacylglycerols and phytosterol esters and unit dosage forms thereof for use in therapy” (Enzymotec Ltd., priority 2003, dated 2013).
At least one structure is not confirmed: it was looked up by name or label, or the drawing left a doubt.

System: healthy volunteers
Conditions: prolonged intake

Row | Structure (SMILES) | suppression of postprandial triglyceridemia [%]
1 | CC/C=C\C/C=C\C/C=C\C/C=C\C/C=C\C/C=C\CCC(=O)O [DHA, Docosahexaenoic acid] | 49
2 | CC/C=C\C/C=C\C/C=C\C/C=C\C/C=C\CCCC(=O)O [EPA, Eicosapentaenoic acid] | 19
